Measured values as given in the RNAGym collection of RNA variant scans (doi:10.1126/science.aae0568).
This sample is rich in variants without activity.

B1: tRNA (parent)
chain: GUUCCGUUGGCGUAAUGGUAACGCGUCUCCCUCCUAAGGAGAAGACUGCGGGUUCGAGUCCCGUACGGAACG

Variants of: B1
Test: yeast fitness relative to wild type (ratio to wild type); higher = fitter; tRNA-Arg(CCU), competitive growth, 37 C, YPD
Method in brief: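 Amplicons of the tRNA-Arg(CCU) gene were sequenced, 100-nucleotide paired-end, from the start population and from each end population of a pooled yeast competition. The competition, in six parallel replicates, lasted 24 hours in YPD at 37°C. Fitness relative to wild type was calculated from changes in genotype frequencies. Genotypes had to have ≥ 100 starting reads, and estimates < 0.5 were set to 0.5.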

Point of comparison: U16A A37C G48C, yeast fitness 0.546. Against it:
- U3C U8G C24G U28G C29G U35G U47A — lower, ≤ 0.5
- A15G A45U G48A C55A — lower, ≤ 0.5
- A21C A36C G56A — higher, 0.562
- C27U G63C G67U — lower, ≤ 0.5
- C4G C11A A69C — lower, ≤ 0.5
- U19A U53A — higher, 0.553
- U7C G12C U32A G39A C49G G58C — lower, ≤ 0.5
- C22G C24G C27G C60U — lower, ≤ 0.5
- U16A C24G C49G U53C — lower, ≤ 0.5
- U8G G18C — lower, ≤ 0.5
- U7A C27U G58C C61U — lower, ≤ 0.5
- A15C A20G A36U — lower, ≤ 0.5
- C24A C33U — higher, 0.601
- U32A G52C C55U C66U — lower, ≤ 0.5
- G6C U16G C27U G56A C60G — lower, ≤ 0.5
- C33U A37U C46U — lower, ≤ 0.5
- G18C C24A A36U — lower, ≤ 0.5
- U19G A65C G67A — lower, ≤ 0.5
- C24U C46G A65U — higher, 0.782
- U19C C22G C61U A65U — lower, ≤ 0.5
- G17C U28C C29G A42C G51A — lower, ≤ 0.5
- C4A A14C A70G — lower, ≤ 0.5
- U3G A15U C61A — lower, ≤ 0.5
- C5G G12C A20U C24G — lower, ≤ 0.5
- U2G C60A A65C — lower, ≤ 0.5
- C29U A42G A57C U64C — lower, ≤ 0.5
- C5G U13C U32A — lower, ≤ 0.5
- U13C A20U C27G A37U — lower, ≤ 0.5
- U8C C30G C31G G63A — lower, ≤ 0.5
- C31U C33G A36G A45U U59G A69G — lower, ≤ 0.5
- U2C C11A G41C C61A — lower, ≤ 0.5
- C4U A20U C46G A57U A69C — lower, ≤ 0.5
- G10A G17A A36G A40C C55A — lower, ≤ 0.5
- C27G A42C G63C — lower, ≤ 0.5
- C24U C31G C46U G63A — lower, ≤ 0.5
- U32A C46A C62A — lower, ≤ 0.5
- A15C C30A — higher, 0.666
- U7G C11G U32A U53G C66U — lower, ≤ 0.5
- A20U G67C G68C — lower, ≤ 0.5
- A14G G48A C66U — higher, 0.645
- U26A U32A C62U G67C — lower, ≤ 0.5
- G18C G25U C31G C55G A57C — lower, ≤ 0.5
- U7A U19G A21U G68U — lower, ≤ 0.5
- G10A A21C C34G G52A C61A — lower, ≤ 0.5
- U32C C55A C62U — lower, ≤ 0.5
- G10C A20G C24U G38C G41A G56C — lower, ≤ 0.5
- C22U C30U G48A C60G — lower, ≤ 0.5
- U8A A14C C31A — higher, 0.571
- U7A A36U C55U — lower, ≤ 0.5
- A15G G63A — higher, 0.926
- A21G C49A G56A — lower, 0.533
- A21C G48C G67C — lower, ≤ 0.5
- U13A A21C — higher, 0.65
- U8C U28A C31G A42U C49G G67U — lower, ≤ 0.5
- C34G C66A A69U — lower, ≤ 0.5
- A21U A36U A45G A65G — lower, ≤ 0.5
- C24A A36U C61A A69C — lower, ≤ 0.5
- U7C C24G C61U C66G G67A — lower, ≤ 0.5
- C5U G23A G25C — higher, 0.65
- A15C G67A — higher, 0.698
- U2G U54C C66U — lower, ≤ 0.5
- U7C A40G C49G — lower, ≤ 0.5
- C5U C24U U28C C30A — lower, ≤ 0.5
- C11U U26G G51A — lower, ≤ 0.5
- C5U C22G A36C A57U C61A C66G — lower, ≤ 0.5
- U3C G9A C11A C30G C46U — lower, ≤ 0.5
- C5G C30A G58C G68A — lower, ≤ 0.5
- G6C A14C C24U C29A G39C — lower, ≤ 0.5
- A20C G23C C27A C62A A69U — lower, ≤ 0.5
- A15U C24G A42C C62U — lower, ≤ 0.5
- A21C C24G C29U A42C U59G G67U — lower, ≤ 0.5
- C24G C33G C55G A70C — lower, ≤ 0.5
- U2C C5G C29G G41C A57U — lower, ≤ 0.5
- U8C U13G C22U C49U — lower, ≤ 0.5
- C60U G67A — higher, 0.721
- C11A C31U C46A A70G — lower, ≤ 0.5
- C4U C5A U59C C60G — lower, ≤ 0.5
- C5G U7G U13A C30A A43C U53C C61U A69U — lower, ≤ 0.5
- U16A A42C A69U — lower, 0.505
- C4U A15U C34G A45U U53A — lower, ≤ 0.5
- C4A G17C C22U — lower, ≤ 0.5
- C31A C33U G41A A65C — lower, ≤ 0.5
